Values from PubChem BioAssay AID493246 (Drosophila RNAi Screening Center, 2011)
The screen tested about 21,000 reagents; shown is a random part of those that have a named target and a result. In the full data, 429 (2%) were called active. 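Values are raw and not normalised between plates; calls rest on per-plate z-scores that were not deposited.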 Names joined by + are all predicted targets of the reagent. The record does not give: the amount of reagent, the time to read-out.

Test: 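Identify essential fly genes by loss of cell viability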 (primary screen)
System: Drosophila Kc and S2R+ cells
Knock-down reagent: long dsRNA against Drosophila genes
Detection: 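Raw, unnormalised count of remaining cells in each well; per-plate z-scores of cell number underlie the calls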
Reading the numbers: Kc cell number and S2R+ cell number: higher = more cells remaining
Hit rule: 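Active when the per-plate z-score of cell number is 3 or more in the direction of fewer cells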

After knock-down of Rdh [DRSC08063], the record shows Kc cell number, rep 1 = 6.99e5; Kc cell number, rep 2 = 6.75e5; S2R+ cell number, rep 1 = 5.53e5; S2R+ cell number, rep 2 = 6.27e5; active. Rdh [DRSC08434] scored Kc cell number, rep 1 = 2.94e5; Kc cell number, rep 2 = 3.13e5; S2R+ cell number, rep 1 = 5.67e5; S2R+ cell number, rep 2 = 7.05e5; active. With knock-down of CG42307 + mus312 [DRSC11008], the screen gave Kc cell number, rep 1 = 1.39e6; Kc cell number, rep 2 = 1.42e6; S2R+ cell number, rep 1 = 1.19e6; S2R+ cell number, rep 2 = 1.25e6; inactive. Against asl [DRSC12319], the entry reads Kc cell number, rep 1 = 1.65e6; Kc cell number, rep 2 = 1.77e6; S2R+ cell number, rep 1 = 1.27e6; S2R+ cell number, rep 2 = 1.36e6; inactive. Against yki [DRSC04437], the values are Kc cell number, rep 1 = 1.28e6; Kc cell number, rep 2 = 1.33e6; S2R+ cell number, rep 1 = 1.08e6; S2R+ cell number, rep 2 = 1.15e6; inactive. Against Or85a [DRSC16764], the entry reads Kc cell number, rep 1 = 1.47e6; Kc cell number, rep 2 = 1.66e6; S2R+ cell number, rep 1 = 1.26e6; S2R+ cell number, rep 2 = 1.38e6; inactive.

Coq2 [DRSC16516] showed Kc cell number, rep 1 = 1.58e6; Kc cell number, rep 2 = 1.73e6; S2R+ cell number, rep 1 = 1.23e6; S2R+ cell number, rep 2 = 1.32e6; inactive. Silencing of CG8860 [DRSC07291] gave: Kc cell number, rep 1 = 1.55e6; Kc cell number, rep 2 = 1.59e6; S2R+ cell number, rep 1 = 1.21e6; S2R+ cell number, rep 2 = 1.35e6; inactive. After knock-down of hbn [DRSC04082], the record shows Kc cell number, rep 1 = 8.78e5; Kc cell number, rep 2 = 9.09e5; S2R+ cell number, rep 1 = 5.70e5; S2R+ cell number, rep 2 = 2.79e5; active. Knock-down of hbn [DRSC04238] resulted in: Kc cell number, rep 1 = 1.65e6; Kc cell number, rep 2 = 1.65e6; S2R+ cell number, rep 1 = 1.06e6; S2R+ cell number, rep 2 = 1.20e6; inactive. For hbn [DRSC04239], the entry reads Kc cell number, rep 1 = 1.66e6; Kc cell number, rep 2 = 1.66e6; S2R+ cell number, rep 1 = 1.27e6; S2R+ cell number, rep 2 = 3.47e5; inactive. For apolpp [DRSC17216], the values are Kc cell number, rep 1 = 4.86e5; S2R+ cell number, rep 1 = 8.90e5; inactive.

With knock-down of Stt3B [DRSC16781], the screen gave Kc cell number, rep 1 = 1.68e6; Kc cell number, rep 2 = 1.52e6; S2R+ cell number, rep 1 = 9.83e5; S2R+ cell number, rep 2 = 1.16e6; inactive. After knock-down of Spn88Ea [DRSC17061], the record shows Kc cell number, rep 1 = 1.21e6; Kc cell number, rep 2 = 1.24e6; S2R+ cell number, rep 1 = 1.09e6; S2R+ cell number, rep 2 = 1.22e6; inactive. With knock-down of CG31917 + Tfb5 [DRSC02362], the screen gave Kc cell number, rep 1 = 1.82e6; Kc cell number, rep 2 = 1.73e6; S2R+ cell number, rep 1 = 1.12e6; S2R+ cell number, rep 2 = 1.27e6; inactive. With knock-down of CG31917 + Tfb5 [DRSC02363], the screen gave Kc cell number, rep 1 = 1.87e6; Kc cell number, rep 2 = 1.93e6; S2R+ cell number, rep 1 = 1.26e6; S2R+ cell number, rep 2 = 1.46e6; inactive. After knock-down of eEF2 [DRSC03737] the results were Kc cell number, rep 1 = 1.45e6; Kc cell number, rep 2 = 1.49e6; S2R+ cell number, rep 1 = 1.22e6; S2R+ cell number, rep 2 = 3.53e5; inactive. With knock-down of CG15646 [DRSC19682], the screen gave Kc cell number, rep 1 = 1.62e6; Kc cell number, rep 2 = 1.60e6; S2R+ cell number, rep 1 = 1.04e6; S2R+ cell number, rep 2 = 1.18e6; inactive.

Silencing of CG14829 [DRSC10199] gave: Kc cell number, rep 1 = 1.71e6; Kc cell number, rep 2 = 1.61e6; S2R+ cell number, rep 1 = 1.08e6; S2R+ cell number, rep 2 = 1.23e6; inactive. Nna1 [DRSC19404] scored Kc cell number, rep 1 = 6.09e5; S2R+ cell number, rep 1 = 8.66e5; inactive. After knock-down of CG14820 [DRSC10191], the screen gave Kc cell number, rep 1 = 1.29e6; Kc cell number, rep 2 = 1.22e6; S2R+ cell number, rep 1 = 1.22e6; S2R+ cell number, rep 2 = 1.22e6; inactive. For Or49a [DRSC07493], the values are Kc cell number, rep 1 = 1.51e6; Kc cell number, rep 2 = 1.53e6; S2R+ cell number, rep 1 = 1.18e6; S2R+ cell number, rep 2 = 1.30e6; inactive. Against Rsph1 [DRSC02864], the entry reads Kc cell number, rep 1 = 1.74e6; Kc cell number, rep 2 = 1.81e6; S2R+ cell number, rep 1 = 1.37e6; S2R+ cell number, rep 2 = 1.54e6; inactive. Against Deaf1 [DRSC11143], the values are Kc cell number, rep 1 = 1.34e6; Kc cell number, rep 2 = 1.41e6; S2R+ cell number, rep 1 = 9.87e5; S2R+ cell number, rep 2 = 1.14e6; inactive.

CG12769 [DRSC06167] showed Kc cell number, rep 1 = 1.65e6; Kc cell number, rep 2 = 1.60e6; S2R+ cell number, rep 1 = 1.15e6; S2R+ cell number, rep 2 = 1.13e6; inactive. Against CG13171 [DRSC06299], the entry reads Kc cell number, rep 1 = 1.58e6; Kc cell number, rep 2 = 1.54e6; S2R+ cell number, rep 1 = 1.23e6; S2R+ cell number, rep 2 = 1.30e6; inactive. Knock-down of unc-13 [DRSC17192] resulted in: Kc cell number, rep 1 = 1.19e6; Kc cell number, rep 2 = 1.63e6; S2R+ cell number, rep 1 = 1.02e6; S2R+ cell number, rep 2 = 1.08e6; inactive. unc-13 [DRSC17193] gave Kc cell number, rep 1 = 1.15e6; Kc cell number, rep 2 = 1.51e6; S2R+ cell number, rep 1 = 1.07e6; S2R+ cell number, rep 2 = 1.15e6; inactive. unc-13 [DRSC17223] scored Kc cell number, rep 1 = 5.07e5; S2R+ cell number, rep 1 = 7.82e5; inactive.

Reprinted from the entries so far, 2 entries:
unc-13 [DRSC17193] | Kc cell number, rep 1: 1.15e6; Kc cell number, rep 2: 1.51e6; S2R+ cell number, rep 1: 1.07e6; S2R+ cell number, rep 2: 1.15e6; call: inactive
unc-13 [DRSC17223] | Kc cell number, rep 1: 5.07e5; S2R+ cell number, rep 1: 7.82e5; call: inactive
